The list shows a part of the results.

The assay has as its system T1, CTL2-GFP (C. trachomatis L2/434/Bu, GFP-expressing).
T1 construct: L2/434/Bu, GFP-expressing
Details: species or system HeLa; Intracellular C. trachomatis growth in HeLa cells, bulk GFP fluorescence relative to DMSO. As to conditions: bulk GFP, single well; 28.5 h, 10 µM; inhibitor.
In the case of `OCc1cc(Cl)c(Cl)c(CO)c1O` [CBK269397], the “% of control remaining” value came to 109.317%.

As to `COc1ccccc1-c1cnc(N)c(N[C@@H](CO)C(C)C)n1` [CBK063749], the “% of control remaining” value came out at 196.805%.

Take `COc1ccc(CN2CCCN(C(=O)c3ccc(C#N)cc3)CC2)cc1` [CBK305273]: the “% of control remaining” value is reported as 106.305%.

Turning to `CN(C)CCC(c1ccccc1)n1cncc1-c1cnn(C)c1` (centres unmarked) [CBK281742], the “% of control remaining” value is 154.865%.

In the case of `Cc1ccc2nc(N3CCCC(O)C3)c(CN3CCC(F)CC3)cc2c1` (centres unmarked) [CBK307016], the “% of control remaining” value was found to be 131.46%.

On to `O=C(NCc1nnc(-c2cccs2)o1)c1ccccc1-c1ccccc1` [CBK286293], for which the “% of control remaining” value is 85.8831%.

`Cc1ccc(C(=O)NCCN2CCOCC2)c(NCCCn2ccnc2)n1` [CBK076371]: the “% of control remaining” value was 144.356%.

For `CCC(=O)N1CCC(NC(=O)c2cnc(-c3ccncc3)s2)C1` (centres unmarked) [CBK305550], the “% of control remaining” value is on record as 97.126%.

For the compound `CCC(Oc1ccc(C)cc1)C(=O)Nc1ccccc1C(=O)N1CCOCC1` (centres unmarked) [CBK270132], the “% of control remaining” value came out at 159.119%.

For `O=C(O)C(Cc1ccccc1)n1cnnn1` (centres unmarked) [CBK021162], the “% of control remaining” value is 90.0157%.

For `O=C(O)C1(NCc2ccccc2Cl)CCCCC1` [CBK287269], the “% of control remaining” value is given as 164.172%.

In the case of `O=C(Cn1cnc2c(c1=O)CCCC2)Nc1ccc(Cl)c(Cl)c1` [CBK304655], the “% of control remaining” value was found to be 88.1348%.

Regarding `N#Cc1ccc(NC(=O)CC2(CC(=O)O)CCCC2)cc1` [CBK286979], the “% of control remaining” value is on record as 154.202%.

As for `O=C(Nc1cccc(N2CCCC2)c1)c1cc(C2CC2)on1` [CBK283139], the “% of control remaining” value is reported as 118.635%.

For the compound `COc1ccccc1N1CC(C(=O)Nc2ccc(C(=O)O)cc2)CC1=O` (centres unmarked) [CBK269606], the “% of control remaining” value is 142.475%.

Turning to `O=C(O)CN1C(=O)C(=Cc2ccc(-c3ccc(Br)cc3)o2)SC1=S` [CBK296075], the “% of control remaining” value came out at 155.135%.

Take `O=C1CSC(c2cccnc2)N1CCc1ccccn1` (centres unmarked) [CBK017292]: the “% of control remaining” value came to 95.9522%.

As for `COc1cc(OC)cc(-c2[nH][nH]c(=O)c2CCN)c1` [CBK288414], the “% of control remaining” value turned out to be 102.74%.

Consider `CC(C)(C)NC(=O)CNS(=O)(=O)c1ccccc1` [CBK265807], for which the “% of control remaining” value came out at 100%.

Consider `Cc1cc(OCC(O)CN2CCN(Cc3ccc4c(c3)OCO4)CC2)cc(C)c1Cl` (centres unmarked) [CBK074374], for which the “% of control remaining” value came to 123.367%.

As for `COc1ccc(S(=O)(=O)NCCSCc2cccc(C)c2)cc1Cl` [CBK268477], the “% of control remaining” value was 98.4683%.

Regarding `CCn1cc(CN2CCCN(C(=O)c3cc(C)on3)CC2)cn1` [CBK306145], the “% of control remaining” value is reported as 130.012%.

Regarding `Cc1nn(C)c2ncc(S(=O)(=O)NCC(N)c3ccc(F)cc3F)cc12` (centres unmarked) [CBK304303C], the “% of control remaining” value was 126.148%.

The record behind these values is PMC12040169 (PLOS Biology, 2025).
